Measured values reported in the supplement of paper PMC10849652.
The list shows a part of the results.

Amino acid sequences for entries named in this document (tags omitted). A change or cut given only in a name is not applied to a line headed by its entry.
UniProt P52597: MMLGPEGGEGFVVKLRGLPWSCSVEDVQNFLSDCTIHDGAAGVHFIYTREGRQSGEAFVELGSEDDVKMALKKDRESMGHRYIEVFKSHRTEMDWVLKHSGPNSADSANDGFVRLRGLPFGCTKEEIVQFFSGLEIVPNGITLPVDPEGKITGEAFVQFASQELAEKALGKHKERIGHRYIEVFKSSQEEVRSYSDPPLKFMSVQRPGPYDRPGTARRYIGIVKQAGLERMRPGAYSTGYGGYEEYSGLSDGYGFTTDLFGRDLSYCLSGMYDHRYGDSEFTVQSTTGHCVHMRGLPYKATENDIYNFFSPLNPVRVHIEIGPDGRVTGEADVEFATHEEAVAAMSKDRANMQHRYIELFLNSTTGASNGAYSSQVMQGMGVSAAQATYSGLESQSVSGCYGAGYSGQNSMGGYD
UniProt Q8IWL3: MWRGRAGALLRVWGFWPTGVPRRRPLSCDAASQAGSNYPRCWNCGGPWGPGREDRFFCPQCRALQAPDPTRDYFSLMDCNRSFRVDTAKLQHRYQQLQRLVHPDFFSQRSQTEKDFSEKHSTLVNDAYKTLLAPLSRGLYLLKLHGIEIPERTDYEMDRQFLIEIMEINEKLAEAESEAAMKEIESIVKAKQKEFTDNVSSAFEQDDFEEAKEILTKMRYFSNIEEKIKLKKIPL
UniProt Q9NQE9: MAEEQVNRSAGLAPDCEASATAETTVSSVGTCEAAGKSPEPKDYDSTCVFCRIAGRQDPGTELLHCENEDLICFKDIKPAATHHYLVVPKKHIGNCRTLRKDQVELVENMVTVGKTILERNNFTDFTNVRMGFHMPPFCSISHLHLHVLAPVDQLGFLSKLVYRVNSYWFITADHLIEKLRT
UniProt Q9UPZ3: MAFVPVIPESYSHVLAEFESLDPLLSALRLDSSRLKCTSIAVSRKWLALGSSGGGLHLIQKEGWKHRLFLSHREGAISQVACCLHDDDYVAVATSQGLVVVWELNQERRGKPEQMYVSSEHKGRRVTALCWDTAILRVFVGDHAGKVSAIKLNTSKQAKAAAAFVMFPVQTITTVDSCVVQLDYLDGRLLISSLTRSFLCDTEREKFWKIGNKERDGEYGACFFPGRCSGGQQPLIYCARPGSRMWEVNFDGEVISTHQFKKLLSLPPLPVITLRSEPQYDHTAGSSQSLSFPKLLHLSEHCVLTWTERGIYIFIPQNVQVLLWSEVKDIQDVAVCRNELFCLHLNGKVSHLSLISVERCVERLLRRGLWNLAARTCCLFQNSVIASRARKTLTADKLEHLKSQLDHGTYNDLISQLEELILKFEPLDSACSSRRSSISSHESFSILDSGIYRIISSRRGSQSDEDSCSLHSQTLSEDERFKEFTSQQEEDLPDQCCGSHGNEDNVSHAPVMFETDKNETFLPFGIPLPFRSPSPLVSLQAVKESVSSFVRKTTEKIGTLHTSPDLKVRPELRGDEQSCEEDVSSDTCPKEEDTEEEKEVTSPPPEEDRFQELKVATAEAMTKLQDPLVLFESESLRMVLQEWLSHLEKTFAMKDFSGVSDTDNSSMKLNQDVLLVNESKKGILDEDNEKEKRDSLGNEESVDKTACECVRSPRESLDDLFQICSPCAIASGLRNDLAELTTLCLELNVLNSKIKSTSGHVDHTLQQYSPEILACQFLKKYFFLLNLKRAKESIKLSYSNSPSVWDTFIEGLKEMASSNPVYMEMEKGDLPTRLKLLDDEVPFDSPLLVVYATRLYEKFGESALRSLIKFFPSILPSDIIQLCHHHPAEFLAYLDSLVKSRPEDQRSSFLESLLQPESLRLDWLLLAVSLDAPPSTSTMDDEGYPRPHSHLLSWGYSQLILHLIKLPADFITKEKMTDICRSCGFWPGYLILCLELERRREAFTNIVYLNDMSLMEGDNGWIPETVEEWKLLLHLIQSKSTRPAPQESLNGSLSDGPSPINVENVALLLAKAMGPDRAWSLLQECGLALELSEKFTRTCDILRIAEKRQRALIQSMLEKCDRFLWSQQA
UniProt P0DMV8, whole entry, looked up: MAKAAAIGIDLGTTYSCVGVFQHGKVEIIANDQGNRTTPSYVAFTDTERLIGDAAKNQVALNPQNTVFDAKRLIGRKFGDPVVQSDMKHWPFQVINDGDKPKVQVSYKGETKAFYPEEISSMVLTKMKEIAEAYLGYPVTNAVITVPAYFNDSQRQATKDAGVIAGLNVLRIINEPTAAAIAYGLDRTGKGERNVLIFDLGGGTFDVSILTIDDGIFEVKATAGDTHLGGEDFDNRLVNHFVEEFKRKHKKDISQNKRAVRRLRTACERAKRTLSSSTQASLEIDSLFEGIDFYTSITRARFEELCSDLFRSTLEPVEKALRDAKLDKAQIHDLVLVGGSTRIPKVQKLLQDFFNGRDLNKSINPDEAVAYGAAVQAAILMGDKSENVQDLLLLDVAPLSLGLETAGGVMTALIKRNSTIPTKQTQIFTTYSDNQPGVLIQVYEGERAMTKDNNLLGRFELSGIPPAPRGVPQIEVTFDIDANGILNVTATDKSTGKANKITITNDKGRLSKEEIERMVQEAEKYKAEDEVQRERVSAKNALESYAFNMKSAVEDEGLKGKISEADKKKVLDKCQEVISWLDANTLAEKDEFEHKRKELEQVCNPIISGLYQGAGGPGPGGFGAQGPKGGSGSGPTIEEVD
UniProt P56937: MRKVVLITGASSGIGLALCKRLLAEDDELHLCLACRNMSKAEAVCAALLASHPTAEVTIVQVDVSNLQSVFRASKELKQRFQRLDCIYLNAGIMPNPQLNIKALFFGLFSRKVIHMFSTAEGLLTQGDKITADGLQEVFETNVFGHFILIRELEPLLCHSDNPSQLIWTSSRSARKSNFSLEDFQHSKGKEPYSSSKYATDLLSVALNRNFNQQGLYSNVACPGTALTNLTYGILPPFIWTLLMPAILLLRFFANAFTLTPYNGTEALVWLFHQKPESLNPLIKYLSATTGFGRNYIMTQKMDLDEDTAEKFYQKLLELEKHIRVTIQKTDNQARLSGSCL
UniProt Q5SSJ5: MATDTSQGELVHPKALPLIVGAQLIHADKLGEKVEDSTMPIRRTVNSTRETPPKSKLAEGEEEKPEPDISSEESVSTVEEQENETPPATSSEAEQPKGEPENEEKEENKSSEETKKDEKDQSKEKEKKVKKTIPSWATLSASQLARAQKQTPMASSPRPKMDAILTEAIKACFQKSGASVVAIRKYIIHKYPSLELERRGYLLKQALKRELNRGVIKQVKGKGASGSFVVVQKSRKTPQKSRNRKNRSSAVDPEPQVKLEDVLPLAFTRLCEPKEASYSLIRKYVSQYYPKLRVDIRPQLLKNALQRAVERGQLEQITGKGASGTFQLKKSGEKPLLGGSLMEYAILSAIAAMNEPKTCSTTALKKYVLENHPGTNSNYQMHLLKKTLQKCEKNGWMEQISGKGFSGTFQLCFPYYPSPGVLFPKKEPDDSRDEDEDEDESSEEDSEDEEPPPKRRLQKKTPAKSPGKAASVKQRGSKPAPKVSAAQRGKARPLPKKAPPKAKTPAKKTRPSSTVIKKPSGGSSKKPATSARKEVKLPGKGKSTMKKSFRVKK
UniProt Q9NWY4: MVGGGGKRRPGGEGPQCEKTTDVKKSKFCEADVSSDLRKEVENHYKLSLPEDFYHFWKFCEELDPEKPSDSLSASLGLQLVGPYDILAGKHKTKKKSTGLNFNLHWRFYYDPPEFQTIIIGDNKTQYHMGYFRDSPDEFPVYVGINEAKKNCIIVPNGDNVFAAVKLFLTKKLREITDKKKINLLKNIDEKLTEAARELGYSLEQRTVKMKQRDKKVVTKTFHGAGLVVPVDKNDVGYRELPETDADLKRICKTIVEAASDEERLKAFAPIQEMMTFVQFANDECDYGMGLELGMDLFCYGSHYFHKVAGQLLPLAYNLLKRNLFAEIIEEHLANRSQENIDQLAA
UniProt P22626: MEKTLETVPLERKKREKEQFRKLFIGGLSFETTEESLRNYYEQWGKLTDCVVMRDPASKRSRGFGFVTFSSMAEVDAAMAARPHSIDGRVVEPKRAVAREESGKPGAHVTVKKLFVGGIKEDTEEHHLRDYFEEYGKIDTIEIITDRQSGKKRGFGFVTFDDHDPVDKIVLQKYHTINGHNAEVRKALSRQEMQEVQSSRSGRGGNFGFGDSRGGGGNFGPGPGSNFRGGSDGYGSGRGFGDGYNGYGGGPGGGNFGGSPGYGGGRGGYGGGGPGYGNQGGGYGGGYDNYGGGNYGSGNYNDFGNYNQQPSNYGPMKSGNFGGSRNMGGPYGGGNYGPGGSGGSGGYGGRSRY
UniProt P17482: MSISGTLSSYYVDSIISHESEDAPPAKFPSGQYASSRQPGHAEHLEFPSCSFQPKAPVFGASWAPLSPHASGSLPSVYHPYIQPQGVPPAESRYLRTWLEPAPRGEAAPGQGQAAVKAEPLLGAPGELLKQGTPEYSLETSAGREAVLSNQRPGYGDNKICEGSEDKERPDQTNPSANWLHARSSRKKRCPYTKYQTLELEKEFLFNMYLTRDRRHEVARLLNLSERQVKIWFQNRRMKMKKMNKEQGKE
UniProt P17483: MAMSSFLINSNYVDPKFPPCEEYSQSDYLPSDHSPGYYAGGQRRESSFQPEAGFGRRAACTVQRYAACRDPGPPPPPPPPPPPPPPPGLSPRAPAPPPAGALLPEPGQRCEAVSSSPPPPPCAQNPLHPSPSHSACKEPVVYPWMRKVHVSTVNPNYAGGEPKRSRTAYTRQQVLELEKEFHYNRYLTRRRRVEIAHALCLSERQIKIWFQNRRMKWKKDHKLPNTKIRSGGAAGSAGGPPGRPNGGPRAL
UniProt P54198, whole entry, looked up: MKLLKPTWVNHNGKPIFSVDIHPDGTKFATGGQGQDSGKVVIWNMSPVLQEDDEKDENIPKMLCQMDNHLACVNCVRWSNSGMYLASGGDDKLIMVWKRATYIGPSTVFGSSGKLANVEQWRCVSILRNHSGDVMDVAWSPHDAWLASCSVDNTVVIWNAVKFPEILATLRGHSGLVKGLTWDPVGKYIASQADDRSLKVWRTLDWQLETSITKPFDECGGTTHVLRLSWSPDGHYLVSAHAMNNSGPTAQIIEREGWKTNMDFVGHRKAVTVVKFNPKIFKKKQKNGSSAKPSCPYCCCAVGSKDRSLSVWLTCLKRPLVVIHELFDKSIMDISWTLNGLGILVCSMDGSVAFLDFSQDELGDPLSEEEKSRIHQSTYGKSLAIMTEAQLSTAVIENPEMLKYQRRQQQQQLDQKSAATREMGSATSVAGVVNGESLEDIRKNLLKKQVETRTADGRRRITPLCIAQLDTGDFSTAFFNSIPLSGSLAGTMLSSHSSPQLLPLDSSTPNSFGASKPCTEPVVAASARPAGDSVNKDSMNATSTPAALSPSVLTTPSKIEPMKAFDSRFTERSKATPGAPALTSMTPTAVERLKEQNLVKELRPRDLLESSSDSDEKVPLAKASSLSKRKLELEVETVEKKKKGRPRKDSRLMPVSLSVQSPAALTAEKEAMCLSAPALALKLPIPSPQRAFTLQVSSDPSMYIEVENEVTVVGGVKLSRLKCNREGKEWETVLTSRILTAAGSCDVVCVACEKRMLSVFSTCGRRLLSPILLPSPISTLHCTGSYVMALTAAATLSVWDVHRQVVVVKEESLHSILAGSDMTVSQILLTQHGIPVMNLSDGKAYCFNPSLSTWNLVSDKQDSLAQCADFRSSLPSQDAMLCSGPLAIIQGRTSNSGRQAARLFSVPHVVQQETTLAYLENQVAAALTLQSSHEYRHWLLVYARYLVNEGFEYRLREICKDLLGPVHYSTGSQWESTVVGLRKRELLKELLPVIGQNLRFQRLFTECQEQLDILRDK
UniProt Q8NCD3, whole entry, looked up: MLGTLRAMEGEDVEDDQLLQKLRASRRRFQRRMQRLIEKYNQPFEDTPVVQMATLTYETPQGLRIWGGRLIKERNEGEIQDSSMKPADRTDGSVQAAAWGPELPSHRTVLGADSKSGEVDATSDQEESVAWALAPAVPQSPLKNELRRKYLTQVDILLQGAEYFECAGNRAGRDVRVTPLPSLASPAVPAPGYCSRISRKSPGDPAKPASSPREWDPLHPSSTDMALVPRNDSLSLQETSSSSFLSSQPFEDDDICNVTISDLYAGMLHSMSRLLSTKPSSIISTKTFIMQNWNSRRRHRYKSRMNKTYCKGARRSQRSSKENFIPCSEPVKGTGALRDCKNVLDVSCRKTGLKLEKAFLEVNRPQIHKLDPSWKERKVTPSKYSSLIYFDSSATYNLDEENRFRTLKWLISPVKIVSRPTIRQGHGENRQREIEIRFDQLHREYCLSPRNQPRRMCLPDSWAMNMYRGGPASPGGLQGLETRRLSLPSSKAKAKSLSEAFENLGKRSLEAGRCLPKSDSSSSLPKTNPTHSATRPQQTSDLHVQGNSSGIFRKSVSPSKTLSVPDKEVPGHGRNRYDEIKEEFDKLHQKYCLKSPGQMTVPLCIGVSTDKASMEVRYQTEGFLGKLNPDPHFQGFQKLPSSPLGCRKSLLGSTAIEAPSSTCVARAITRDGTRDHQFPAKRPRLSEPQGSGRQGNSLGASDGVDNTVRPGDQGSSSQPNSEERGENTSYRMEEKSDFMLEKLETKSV

compound: COC(=O)[C@H](CCSC)NC(=O)C1=C(C=C(C=C1)NC[C@H](CS)N)C2=CC=CC=C2; assay: log2 fold change, soluble protein after heating vs DMSO (PISA); higher = thermal stabilisation; K562 lysate, 10 uM; active = over 0.2 and 3.5 SD of the protein, either way, in both replicates (recomputed)
Method in brief: (§1)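 The values are log-two fold changes in thermal stability compared with solvent controls and come from duplicates. They were obtained by TMTpro 16plex LC-MS/MS, with channel sums equalised, on the supernatant after 21,000xg for 90 min. That supernatant came from crude K562 extract at 1 mg/mL protein treated with 10 μM compound for 30 min, heated for 3 min across 48°C-58°C, pooled and brought to 0.5% NP-40 at 4°C.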

log2 fold change, inactive:
HNRNPF (UniProt P52597) -0.034, HPS3 (UniProt Q969F9) 0.126, HPS4 isoform 4 (UniProt Q9NQG7) 0.033, HSCB (UniProt Q8IWL3) -0.071, HSP90AA1 isoform 2 (UniProt P07900) 0.024, HGH1 (UniProt Q9BTY7) 0.06

compound: COc1cc(Nc2ncc3c(n2)-c2ccc(Cl)cc2C(c2c(F)cccc2OC)=NC3)ccc1C(=O)O [alisertib]; assay: as above
Method in brief: as §1

log2 fold change, inactive:
HOOK3 (UniProt Q86VS8) 0.007, HINT3 (UniProt Q9NQE9) -0.015, HPS5 (UniProt Q9UPZ3) 0.008, HECW2 (UniProt Q9P2P5) 0.114, HNRNPR isoform 2 (UniProt O43390) 0.006, HSPA1A (UniProt P0DMV8) 0.019, HSD17B7 (UniProt P56937) -0.012, HP1BP3 (UniProt Q5SSJ5) -0.021, HPF1 (UniProt Q9NWY4) 0.008, HECTD4 (UniProt J3KPF0) 0.013, HNRNPA2B1 (UniProt P22626) 0.016, HERPUD1 (UniProt Q15011) -0.165, HELZ2 (UniProt Q9BYK8) -0.093, HOXB9 (UniProt P17482) -0.041, HOXB4 (UniProt P17483) -0.036, HIRA (UniProt P54198) -0.065, HJURP (UniProt Q8NCD3) -0.072, HK1 isoform 2 (UniProt P19367) 0.017, HEATR6 (UniProt Q6AI08) -0.028, HNRNPF (UniProt P52597) 0.023, HPS3 (UniProt Q969F9) 0.062, HMCN1 (UniProt Q96RW7) 0.035, HSP90AA1 isoform 2 (UniProt P07900) 0.01, HGH1 (UniProt Q9BTY7) 0.01

compound: COc1cc2nc(-c3cc(F)ccc3O)nc(N[C@@H]3CNC[C@H]3C(C)(C)O)c2cc1OC; assay: as above
Method in brief: as §1

log2 fold change, inactive:
HOOK3 (UniProt Q86VS8) 0.002, HINT3 (UniProt Q9NQE9) -0.036, HPS5 (UniProt Q9UPZ3) 0.148, HNMT (UniProt P50135) -0.102, HNRNPR isoform 2 (UniProt O43390) -0.013, HSPA1A (UniProt P0DMV8) -0.002, HSD17B7 (UniProt P56937) -0.037, HP1BP3 (UniProt Q5SSJ5) -0.007, HPF1 (UniProt Q9NWY4) -0.002, HECTD4 (UniProt J3KPF0) 0.045, HNRNPA2B1 (UniProt P22626) -0.002, HOXB9 (UniProt P17482) -0.006, HPS1 (UniProt Q92902) 0.009, HOXB4 (UniProt P17483) -0.106, HIRA (UniProt P54198) -0.103, HJURP (UniProt Q8NCD3) -0.021, HEXD isoform 2 (UniProt Q8WVB3) 0.045, HK1 isoform 2 (UniProt P19367) -0.007, HEATR6 (UniProt Q6AI08) -0.01, HNRNPF (UniProt P52597) -0.009, HPS4 isoform 4 (UniProt Q9NQG7) -0.108, HSCB (UniProt Q8IWL3) 0.006, HSP90AA1 isoform 2 (UniProt P07900) 0.002, HGH1 (UniProt Q9BTY7) -0.053

compound: COc1cc2ncnc(Nc3ccc(F)c(Cl)c3)c2cc1OCCCN1CCOCC1 [gefitinib]; assay: as above
Method in brief: as §1

log2 fold change, inactive:
HOOK3 (UniProt Q86VS8) 0.053, HINT3 (UniProt Q9NQE9) -0.03, HPS5 (UniProt Q9UPZ3) 0.185, HECW2 (UniProt Q9P2P5) 0.117, HNRNPR isoform 2 (UniProt O43390) -0.039, HSPA1A (UniProt P0DMV8) -0.008, HSD17B7 (UniProt P56937) 0.033, HP1BP3 (UniProt Q5SSJ5) -0.015, HPF1 (UniProt Q9NWY4) 0.017, HECTD4 (UniProt J3KPF0) -0.043, HNRNPA2B1 (UniProt P22626) -0.01, HERPUD1 (UniProt Q15011) 0.028, HELZ2 (UniProt Q9BYK8) -0.032, HOXB9 (UniProt P17482) 0.086, HOXB4 (UniProt P17483) 0.051, HIRA (UniProt P54198) -0.044, HJURP (UniProt Q8NCD3) 0.042, HK1 isoform 2 (UniProt P19367) -0.011, HEATR6 (UniProt Q6AI08) 0.001, HNRNPF (UniProt P52597) -0.021, HPS3 (UniProt Q969F9) -0.035, HMCN1 (UniProt Q96RW7) -0.035, HSP90AA1 isoform 2 (UniProt P07900) -0.015, HGH1 (UniProt Q9BTY7) -0.036
